Assay results published in PMC7216583 (Parasites & Vectors, 2020).

How the values were obtained:
[1] = test system: Toxoplasma gondii RH-2F tachyzoites; experiment: microbe, parasite or virus in culture; conditions: 72 h, read-out: Parasite inhibition (%) mean
[2] = test system: human CYP isoforms; conditions: ref S-inhibitor; cited from earlier work

Row | SMILES | inhibition of growth at 5 µM [1] | IC50, human CYP isoforms [2]
1 | O=C(c1ccc(F)cc1)N1CCC[C@H](c2nc(-c3ccc(F)cc3)no2)C1 [ADX-47273] | 5% | –
2 | Nc1nc(N)c2nc(-c3cccc(O)c3)cnc2n1 [TG 100713] | 0.8% | –
3 | C[C@@H]1C(SC2CN(C3=NCCS3)C2)=C(C(=O)OCOC(=O)C(C)(C)C)N2C(=O)[C@H]([C@@H](C)O)[C@H]12 [Tebipenem pivoxil (L-084)] | 15.4% | Tebipenem pivoxil(L-084) is a novel oral carbapenem antibiotic with an IC50 of 100 μg/ml for human CYP isoforms
